Source: PubChem BioAssay AID651768 (National Center for Advancing Translational Sciences (NCATS), 2012)
The whole screen tested about 360,000 compounds, of which about 1,700 (0.47%) were called active. The shares of active, inactive and inconclusive entries below differ from those in the screen. Calls follow the shape of the dose curve; as a rule, active = well fitted inhibition curve with a large enough effect; inconclusive = small, poorly fitted or top-dose-only effect; inactive = no such curve, though single readings can be large or run the other way. A potency beside an inconclusive call is a rough fit, not a confirmed value.

Protein sequences, listed by entry. Tags and fused reporters are not part of them.
UniProt Q14191, whole entry, looked up: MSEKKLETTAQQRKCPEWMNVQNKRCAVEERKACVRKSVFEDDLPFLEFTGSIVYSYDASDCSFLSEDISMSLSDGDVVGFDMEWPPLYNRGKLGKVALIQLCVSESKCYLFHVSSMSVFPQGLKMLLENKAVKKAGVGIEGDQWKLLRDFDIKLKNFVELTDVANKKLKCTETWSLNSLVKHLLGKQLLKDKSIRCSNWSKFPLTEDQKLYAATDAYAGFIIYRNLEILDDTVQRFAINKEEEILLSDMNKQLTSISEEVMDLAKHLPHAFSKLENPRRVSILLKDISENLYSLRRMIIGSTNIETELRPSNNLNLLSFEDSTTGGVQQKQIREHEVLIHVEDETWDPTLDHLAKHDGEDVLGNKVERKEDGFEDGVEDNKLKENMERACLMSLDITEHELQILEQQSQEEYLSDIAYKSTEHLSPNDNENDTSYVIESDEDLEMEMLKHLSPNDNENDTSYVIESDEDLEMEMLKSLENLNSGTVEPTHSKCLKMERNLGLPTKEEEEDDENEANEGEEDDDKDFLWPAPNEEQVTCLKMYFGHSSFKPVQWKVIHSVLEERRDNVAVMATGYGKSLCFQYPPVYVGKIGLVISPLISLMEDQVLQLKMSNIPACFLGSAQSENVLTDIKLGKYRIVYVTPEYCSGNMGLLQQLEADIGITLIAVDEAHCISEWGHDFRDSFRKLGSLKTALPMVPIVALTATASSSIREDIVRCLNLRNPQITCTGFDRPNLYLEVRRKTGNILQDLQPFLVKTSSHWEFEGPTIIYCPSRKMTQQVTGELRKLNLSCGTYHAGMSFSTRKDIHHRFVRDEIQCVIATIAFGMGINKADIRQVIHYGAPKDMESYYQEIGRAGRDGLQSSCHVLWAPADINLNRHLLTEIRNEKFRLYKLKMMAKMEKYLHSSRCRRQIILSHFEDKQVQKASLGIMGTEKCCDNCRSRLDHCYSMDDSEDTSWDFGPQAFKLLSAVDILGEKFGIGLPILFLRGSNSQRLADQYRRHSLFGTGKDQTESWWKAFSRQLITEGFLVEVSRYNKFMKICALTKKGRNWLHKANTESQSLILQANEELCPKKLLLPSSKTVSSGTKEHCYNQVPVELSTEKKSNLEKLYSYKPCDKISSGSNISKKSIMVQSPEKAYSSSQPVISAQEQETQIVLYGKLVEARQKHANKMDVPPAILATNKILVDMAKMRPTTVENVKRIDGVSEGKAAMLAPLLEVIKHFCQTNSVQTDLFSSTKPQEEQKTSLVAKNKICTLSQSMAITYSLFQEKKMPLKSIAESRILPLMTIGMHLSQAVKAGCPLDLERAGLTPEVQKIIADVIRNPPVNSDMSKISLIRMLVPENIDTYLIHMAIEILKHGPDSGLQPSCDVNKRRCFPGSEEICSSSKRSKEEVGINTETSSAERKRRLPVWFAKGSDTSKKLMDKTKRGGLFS

target: Bifunctional 3'-5' exonuclease/ATP-dependent helicase WRN (Homo sapiens) (UniProt Q14191); assay: qHTS for Inhibitors of WRN Helicase; conditions: WRN helicase unwinding, fluorescent forked duplex, kinetic; activity change, negative = inhibition: at 114 µM (top of the series) unless noted; also: nearly all actives have a fitted effect of over 55% in size
Summary of the method: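 Enzyme (20 nM final) and test compound sit together 15 min at room temperature before substrate addition. Substrate is a single-forked duplex oligonucleotide (100 nM) labelled with fluorophore and quencher, with 2 mM ATP; helicase unwinding raises red fluorescence, read kinetically.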
% is scaled to controls: 0 for no effect and ±100 for the full control effect; potency is read from the fitted curve at half-maximal effect.

SMILES | Potency | activity change, negative = inhibition
COC(=O)c1ccc(C(=O)OC)c(NC(=O)Cc2cccs2)c1 | inconclusive: 39.8 µM [inhibitor, partial curve] | –
Cn1/c(=N/NC(=O)c2ccccc2F)sc2ccccc21 | – | inactive: -3.43%
Nc1cc(C(=O)O)c(N)c2c1C(=O)c1ccccc1C2=O | inconclusive: 35.5 µM [inhibitor, partial curve] | –
CC1(C)c2ccccc2N2CC(=O)N(CC(N)=O)C21C (stereo not drawn) | active: 56.2 µM | –
O=C(Cn1cnc2c(nnn2-c2ccccc2)c1=O)NCc1ccc(F)cc1 | – | inactive: -18.8%
CCN(CC)CCOc1ccc2c(c1)C(=NNC(=O)c1ccccn1)c1cc(OCCN(CC)CC)ccc1-2 | active: 35.5 µM | –
COc1ccc(-n2nc(C(=O)NCC(=O)Nc3cc(OC)c(OC)c(OC)c3)c3ccccc3c2=O)cc1OC | inconclusive: 50.1 µM [inhibitor, partial curve] | –
Cc1ccccc1NC(=O)CC1SC(=O)N(c2ccccc2)C1=O (stereo not drawn) | inconclusive: 50.1 µM [inhibitor, partial curve] | –
O=C1C(=Cc2ccco2)CCC1=Cc1ccco1 | active: 3.55 µM | –
N=C(N)SCc1nc2ccccc2c(=O)n1-c1ccccc1 | inconclusive: 35.5 µM [inhibitor, partial curve] | –
O=C1NC(=S)SC1=C1CCCC1 | active: 44.7 µM | –
Cn1ncc(N=Cc2c(O)ccc3ccccc23)c1C(=O)Nc1cccc(Cl)c1 | inconclusive: 29.9 µM [inhibitor, partial curve] | –
O=C(O)c1ccc2c(c1)C(=O)N(c1cccc(-c3nc4ccccc4s3)c1)C2=O | – | inactive: -30.1%
Cc1cc(F)ccc1-c1cc(C(=O)NC2CCCCC2)[nH]n1 | – | inactive: 0.133%
Cc1cc(Br)ccc1OCC(=O)NNC(=O)C(=O)Nc1ccccc1 | – | inactive: -23.3%
O=C1NC(Cc2ccccc2)C(=O)N1Cc1ccccc1 (stereo not drawn) | – | inactive: 2.42%
CS(=O)(=O)c1ccc(Cl)c(NC(=O)C2CC(=O)N(Cc3ccccc3)C2)c1 (stereo not drawn) | – | inactive: 0.102%
CCN1/C(=C/c2ccc3cc(C)ccc3[n+]2CC)Sc2cc(C)ccc21 | active: 50.1 µM | –
COc1cc(/C=N/NC(=O)c2c(C)nc3ccc(Cl)cn23)cc(OC)c1OC | inconclusive: 89.1 µM [inhibitor, single point] | –
O=C(Nc1cc(S(=O)(=O)N2CCCCC2)ccc1Cl)c1ccccc1NS(=O)(=O)c1ccc(F)cc1 | inconclusive: 70.8 µM [inhibitor, partial curve] | –
COc1cc(OC)c2ccc(=O)oc2c1C(CC(=O)N1CCCC1)c1ccc2c(c1)OCO2 (stereo not drawn) | – | inactive: -31.7%
Cc1cc(NC(=O)CCCn2cc([N+](=O)[O-])cn2)n(Cc2ccc(F)cc2)n1 | – | inactive: 2.82% [at 11.6 µM]
Cc1noc(C)c1S(=O)(=O)NC(=O)C1(C)CCN1C(=O)C1(c2ccc(Cl)cc2)CCC1 (stereo not drawn) | – | inactive: 0.15%
COc1cc(/C=C2\SC(=S)N(N(C)c3ccccc3)C2=O)ccc1O | inconclusive: 31.6 µM [inhibitor, full curve] | –

3 entries already listed, arranged by count of non-hydrogen atoms, rising.
SMILES | Potency | activity change, negative = inhibition
COC(=O)c1ccc(C(=O)OC)c(NC(=O)Cc2cccs2)c1 | inconclusive: 39.8 µM [inhibitor, partial curve] | –
O=C(Cn1cnc2c(nnn2-c2ccccc2)c1=O)NCc1ccc(F)cc1 | – | inactive: -18.8%
Cn1ncc(N=Cc2c(O)ccc3ccccc23)c1C(=O)Nc1cccc(Cl)c1 | inconclusive: 29.9 µM [inhibitor, partial curve] | –

Going on with the list:

SMILES | Potency | activity change, negative = inhibition
O=C1c2ccccc2C(=O)N1/N=C/c1ccc(O)c(O)c1O | active: 8.91 µM | –
CC12CCC(C(=O)NCc3ccc4c(c3)OCO4)(OC1=O)C2(C)C (stereo not drawn) | – | inactive: -7.34%
Cc1nn(-c2ccccc2)c(Cl)c1/C=N/Nc1ccc(S(=O)(=O)Nc2ccccc2C(=O)O)cc1[N+](=O)[O-] | inconclusive: 70.8 µM [inhibitor, partial curve] | –
Cc1c(O)cc2c(c1O)C(=O)CC(c1ccc(O)cc1)O2 (stereo not drawn) | – | inactive: -8.34% [at 11.6 µM]
CCc1cc(Cn2nc(-c3ccccc3)cc2C(=O)NCc2cccc(Br)c2)on1 | – | inactive: -1.96%
Cn1c(N=Nc2ccc(N3CCOCC3)cc2)[n+](C)c2ccccc21 | active: 44.7 µM | –
O=C(COC(=O)c1ccco1)Nc1ccccc1[N+](=O)[O-] | inconclusive: 89.1 µM [inhibitor, single point] | –
COc1cc(/C=C2/C(=O)ON=C2c2ccccc2)ccc1O | inconclusive: 31.6 µM [inhibitor, single point] | –
C[n+]1c(-c2ccccc2)cc2c(=Cc3ccccc3)c3ccccc3n21 | inconclusive: 15.8 µM [inhibitor, full curve, poor fit] | –
CN(C)C(CNC(=O)CCc1nc2sc3c(c2c(=O)[nH]1)CCCC3)c1ccccc1 (stereo not drawn) | – | inactive: -18%
O=S(=O)(Nc1ccc(O)c2ccccc12)c1cccs1 | active: 50.1 µM | –
O=C1ON=C(c2ccc([N+](=O)[O-])cc2)/C1=C/c1ccccc1O | inconclusive: 25.1 µM [inhibitor, full curve] | –
Cn1cccc1Cc1nnc(SCC(=O)Nc2ccc(F)cc2)n1-c1ccc(F)cc1 | – | inactive: -0.474%
O=C(/C=C/c1ccc([N+](=O)[O-])cc1)OCC(=O)N1CCCC1 | inconclusive: 17.8 µM [inhibitor, single point] | –
O=C(O)c1cc(N2C(=O)C=CC2=O)cc(N2C(=O)C=CC2=O)c1 | active: 8.91 µM | –
O=C(NCCC1=CCCCC1)C1CCC(=O)N(Cc2cccc(C(F)(F)F)c2)C1 (stereo not drawn) | inconclusive: 39.8 µM [inhibitor, full curve, poor fit] | –
O=C(CCS(=O)(=O)c1ccccc1)Nc1ccc(-c2nc3ccccc3s2)cc1 | inconclusive: 31.6 µM [inhibitor, single point] | –
COC(=O)CSc1nc(C)cc(C)n1 | inconclusive: 25.1 µM [inhibitor, single point] | –
Cc1cccc(Nc2nc(NCc3ccco3)c3ccccc3n2)c1 | inconclusive: 20 µM [inhibitor, partial curve] | –
Cc1cc(=O)[nH]c(NN=C2CCCCC2C)n1 (stereo not drawn) | inconclusive: 17.8 µM [inhibitor, full curve, poor fit] | –
CCOc1ccccc1NC(=O)CSc1nnc(CCC(=O)Nc2ccccc2F)n1C | inconclusive: 39.8 µM [inhibitor, full curve, poor fit] | –
COc1ccc(CCNC(=O)c2ccc(-c3ccc([N+](=O)[O-])cc3Cl)o2)cc1OC | inconclusive: 22.4 µM [inhibitor, single point] | –
COc1cccc(/C=C/c2ccccn2)c1O | – | inactive: -1.77%
CCOC(=O)N1CCc2c(sc3[nH]c(=S)[nH]c(=S)c23)C1 | – | inactive: -21.2%
